Source: PMC7900799, “Synthesis, antibiotic structure–activity relationships, and cellulose dissolution studies of new room-temperature ionic liquids derived from lignin” (Biotechnology for Biofuels, 2021)

Test: Cellulose dissolution in ILs (gravimetric, light microscopy, FTIR)
Type: physicochemical
Settings: 120 °C, 20 min incubation

SMILES: COc1ccc(C[N+](C)(C)C)cc1OC [Compound 8]
- cellulose concentration at which cellulose precipitation was observed: 4 wt%
